# Values from PubChem BioAssay AID1053208 (Peter MacCallum Cancer Centre, 2014)
# Purpose: 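Synthetic lethal interactions between gene loss and doxorubicin in osteosarcoma cells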 (primary screen)
# Cell system: mouse osteosarcoma cells, early-passage culture from an engineered mouse model of fibroblastic bone tumour
# Reagent: siRNA pool against mouse genes, 40 nM
# Duration: about 120 h (48 h before drug, then 72 h with drug)
# Treatment: doxorubicin 100 nM for 72 h, roughly 30-40% inhibitory dose
# Measured: 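Luminescent ATP signal taken as viability with or without 100 nM doxorubicin for 72 h; mean of two wells set against non-targeting siRNA and turned into robust z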
# Reading the numbers: viability z-score with doxorubicin: higher = more viable cells under doxorubicin; viability z-score without drug: higher = more viable cells with knock-down alone
# Hit rule: 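Called active if knock-down leaves viability unchanged without drug (z within -2 to 2) but lowers it with doxorubicin (z at or under -2)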
# Shown is an unselected part of about 17,000 reagents tested. 788 of all reagents (4.7%) were called active. 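Calls rest on z-score classes alone; an extra cut-off of viability at most 70% of control was not applied to them.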 A number with no mark means an inactive call. Further read-outs or replicates are left out here.
gene,combined z-score class,viability z-score with doxorubicin,viability z-score without drug
Gzmn,no change with or without drug,1.12,0.51
Pou1f1,no change with or without drug,-0.79,0
Or2ak5,low cell count with doxorubicin only (active),-2.25,-0.84
Skil,no change with or without drug,0.56,-0.17
Sprr2i,no change with or without drug,1.35,1.69
Gmfb,no change with or without drug,0.22,-0.51
Trim39,no change with or without drug,-0.45,0.17
Kcnab1,no change with or without drug,1.46,0.34
Sned1,high cell count with doxorubicin only,2.14,0.84
Cnksr3,no change with or without drug,-1.8,-1.01
Vmn2r30,no change with or without drug,-1.35,-1.18
Samm50,no change with or without drug,-1.24,0.51
Hadhb,no change with or without drug,0,-1.85
Ripk3,no change with or without drug,0.56,0.84
Spinkl,high cell count with doxorubicin only,2.02,-0.17
Cts3,no change with or without drug,1.12,0.51
Atxn7l1,no change with or without drug,0.45,0.17
Cmtr1,high cell count with doxorubicin only,3.15,1.18
Chchd3,no change with or without drug,-1.46,1.01
Ccdc63,no change with or without drug,-1.12,-0.17
Il12b,no change with or without drug,1.8,1.69
Or5p70,low cell count without drug only,-1.35,-3.37
Cibar1,no change with or without drug,-0.45,-1.18
Slc25a1,no change with or without drug,0,-1.18
Psmg2,low cell count with doxorubicin only (active),-2.25,0.17
Insr,no change with or without drug,-0.56,0.51

Entries above whose target name begins with P or p (2):
gene,combined z-score class,viability z-score with doxorubicin,viability z-score without drug
Pou1f1,no change with or without drug,-0.79,0
Psmg2,low cell count with doxorubicin only (active),-2.25,0.17

Next reagents follow.
gene,combined z-score class,viability z-score with doxorubicin,viability z-score without drug
Rack1,low cell count without drug only,-1.57,-2.19
Vipr2,no change with or without drug,0.9,0.67
Cd34,no change with or without drug,-1.57,0.17
Krt84,no change with or without drug,-0.9,0.51
Ube2i,low cell count with and without drug,-6.3,-5.23
Ino80b,no change with or without drug,-0.22,-1.18
Pld4,no change with or without drug,0.34,0.84
Omd,no change with or without drug,0.45,0.84
Arpc2,no change with or without drug,1.12,-0.17
Retn,no change with or without drug,-1.12,-0.84
H2bc6,no change with or without drug,-0.45,0.17
Cdca3,no change with or without drug,-0.22,0
Or11i1,no change with or without drug,-0.22,0.51
Cdc26,no change with or without drug,-1.12,-0.17
Pafah2,no change with or without drug,0.9,-0.17
4632404H12Rik,no change with or without drug,-0.11,-0.84
Or13p10,low cell count with and without drug,-2.92,-2.02
Ndufs5-ps,no change with or without drug,0.9,-0.84
Ovca2,no change with or without drug,0.9,0
Ptprv,no change with or without drug,-1.12,0.17
Pts,no change with or without drug,-0.34,-0.51
Ccr3,no change with or without drug,0.11,-0.17
4930599N23Rik,no change with or without drug,-0.9,-1.18
Agps,no change with or without drug,-0.45,0
